Counter-ions that a name gives are not always drawn. Some results were stated once for a whole list of compounds, not compound by compound.
How the values were obtained:
[1] = target: T1, neuronal constitutive NO synthase (Rattus norvegicus, UniProt P29476); test: Effects on neuronal constitutive NO synthase of a rat's cerebellum (conversion of [3H]L-arginine into [3H]L-citrulline); assay type: biochemical; details: Sprague-Dawley rat cerebellum homogenate; conversion by NO synthase of [3H]L-arginine into [3H]L-citrulline, 15 min
T1 construct: The reaction is initiated by adding 50 μl of homogenate; from tissue; host or cells: cerebellum of Sprague-Dawley rats (Charles River), homogenate centrifuged at 21000 g

[2] = test system: lipidic peroxidation of the cerebral cortex of a rat; test: Effects on lipidic peroxidation of the cerebral cortex of a rat (MDA concentration); assay type: biochemical; details: homogenate of rat's cerebral cortex; peroxidation initiated by FeCl2/EDTA/ascorbic acid, 30 minutes at 37° C.; MDA quantified at 586 nm

Row | Structure (SMILES) | IC50 [1] [µM] | IC50 [2] [µM]
1 | N=C(Nc1cccc(O)c1)c1cccs1 [Example 19, N-(3-hydroxyphenyl)-2-thiophenecarboximidamide hydroiodide] | < 3.5 | –
2 | CC(C)(C)c1cc(NC(=N)c2cccs2)cc(C(C)(C)C)c1O [Example 25, N-(3,5-bis-(1,1-dimethylethyl)-4-hydroxyphenyl)-2-thiophenecarboximidamide hydrochloride] | – | < 30
3 | Cc1c(C)c2c(c(C)c1O)CCC(C)(CN1CCN(c3ccc(NC(=N)c4cccs4)cc3)CC1)O2 (stereo not shown) [Example 26, N-{4-[4-[(3,4-dihydro-6-hydroxy-2,5,7,8-tetramethyl-2H-1-benzopyran-2-yl)methyl]-1-piperazinyl]phenyl}-2-thiophenecarboximidamide] | < 3.5 | –
4 | NC(=Nc1ccc(CCNC(=O)/C=C/c2ccc(O)cc2)cc1)c1cccs1 [Example 40, (E)-N-(4-{[amino(2-thienyl)methylidene]amino}phenethyl)-3-(4-hydroxyphenyl)-2-propenamide] | < 3.5 | –
5 | CN1CCN(c2ccc(NC(=O)CCNCc3cccc(N=C(N)c4cccs4)c3)cc2)CC1 [Example 52, 3-[(3-{[amino(2-thienyl)methylidene]amino}-benzyl)amino]-N-[4-(4-methyl-1-piperazinyl)phenyl]propanamide hydrochloride] | < 3.5 | –
6 | NC(=Nc1cccc(CNCCC(=O)Nc2ccc(N3CCOCC3)cc2)c1)c1cccs1 [Example 53, 3-[(3-{[amino(2-thienyl)methylidene]amino}-benzyl)amino]-N-[4-(4-morpholinyl)phenyl]propanamide hydrochloride] | < 3.5 | –
7 | NC(=Nc1ccc(CCNCc2ccc3cccc(O)c3n2)cc1)c1cccs1 [Example 59, N′-[4-(2-{[(8-hydroxy-2-quinolinyl)methyl]amino}ethyl)phenyl]-2-thiophenecarboximidamide] | < 3.5 | –
8 | I.NC(=Nc1ccc(CCNCC=Cc2ccccc2)cc1)c1cccs1 [Example 60, N′-[4-(2-{[3-phenyl-2-propenyl]amino}ethyl)phenyl]-2-thiophenecarboximidamide hydroiodide] | < 3.5 | –
9 | Cc1c(C)c2c(c(C)c1O)CCC(C)(CNCCc1ccc(N=C(N)c3cccs3)cc1)O2 (stereo not shown) [Example 65, N′-[4-(2-{[(6-hydroxy-2,5,7,8-tetramethyl-3,4-dihydro-2H-chromen-2-yl)methyl]amino}ethyl)phenyl]-2-thiophenecarboximidamide] | < 3.5 | –
10 | COc1cc(/C=C/CN(C)CCc2ccc(N=C(N)c3cccs3)cc2)cc(OC)c1O [Example 66, N′-(4-{2-[[(E)-3-(4-hydroxy-3,5-dimethoxyphenyl)-2-propenyl](methyl)amino]ethyl}phenyl)-2-thiophenecarboximidamide] | < 3.5 | –
11 | NC(=Nc1ccc(OCc2ccc3ccccc3n2)cc1)c1cccs1 [Example 73, N′-[4-(2-quinolinylmethoxy)phenyl]-2-thiophene-carboximidamide hydroiodide] | < 3.5 | –

Other lines, results leading:

Row | IC50 [1] [µM] | IC50 [2] [µM] | Structure (SMILES)
12 | < 3.5 | – | CSc1ccc(O)c(C(=O)NCCc2ccc(NC(=N)c3cccs3)cc2)c1 [Example 2]
13 | < 3.5 | – | CC(C)c1cccc(C(=O)NCCc2ccc(NC(=N)c3cccs3)cc2)c1O [Example 4, 2-hydroxy-3-isopropyl-N-{2-[4-[(2-thienyl(imino)methyl)amino]phenyl]ethyl}-benzamide hydrochloride]
14 | < 3.5 | – | N=C(Nc1ccc(CCNC(=O)c2c(O)cccc2O)cc1)c1cccs1 [Example 5, 2,6-dihydroxy-N-{2-[4-[(2-thienyl(imino)methyl)amino]phenyl]ethyl}-benzamide hydrochloride]
15 | < 3.5 | – | COc1cc(O)c(C(=O)NCCc2ccc(NC(=N)c3cccs3)cc2)c(OC)c1 [Example 6, 2-hydroxy-4,6-dimethoxy-N-{2-[4-[(2-thienyl(imino)methyl)amino]phenyl]ethyl}-benzamide hydrochloride]
16 | < 3.5 | – | COc1cc(O)c(C(=O)NCCc2ccc(NC(=N)c3cccs3)cc2)c(OC)c1OC [Example 7, 2-hydroxy-4,5,6-trimethoxy-N-{2-[4-[(2-thienyl (imino)methyl)amino]phenyl]ethyl}-benzamide hydrochloride]
17 | < 3.5 | – | Cc1cc(O)c(C)c(O)c1C(=O)NCCc1ccc(NC(=N)c2cccs2)cc1 [Example 10, 2,4-dihydroxy-3,6-dimethyl-N-{2-[4-[(2-thienyl (imino)methyl)amino]phenyl]ethyl-benzamide hydrochloride]
18 | < 3.5 | – | N=C(Nc1ccc(CCNC(=O)C2(O)C=Cc3ccc(O)cc3C2)cc1)c1cccs1 (stereo not shown) [Example 11, 2,7-dihydroxy-N-{2-[4-[(2-thienyl(imino)methyl)amino]phenyl]ethyl}-2-naphthalenecarboxamide hydrochloride]
19 | < 3.5 | – | COc1ccc(C(=O)NCCc2ccc(NC(=N)c3cccs3)cc2)c(O)c1 [Example 12, 2-hydroxy-4-methoxy-N-{2-[4-[(2-thienyl(imino)methyl)amino]phenyl]ethyl}-benzamide hydrochloride]
20 | – | < 30 | Cc1c(C)c2c(c(C)c1O)CCC(C)(C(=O)NCCc1ccc(NC(=N)c3cccs3)cc1)O2 (stereo not shown) [Example 15, 3,4-dihydro-6-hydroxy-2,5,7,8-tetramethyl-N-{2-[4-[(2-thienyl(imino)methyl)amino]phenyl]ethyl}-2H-1-benzopyran-2-carboxamide hydrochloride]
21 | – | < 30 | Cc1c(C)c2c(c(C)c1O)CCC(C)(C(=O)NCc1ccc(NC(=N)c3cccs3)cc1)O2 (stereo not shown) [Example 16, 3,4-dihydro-6-hydroxy-2,5,7,8-tetramethyl-N-{1-[4-[(2-thienyl(imino)methyl)amino]phenyl]methyl}-2H-1-benzopyran-2-carboxamide hydrochloride]
22 | < 3.5 | – | Cc1ccc(NC(=N)c2cccs2)cc1O [Example 21, N-(3-hydroxy-4-methylphenyl)-2-thiophenecarboximidamide hydrochloride]
23 | < 3.5 | – | COc1ccc(NC(=N)c2cccs2)cc1 [Example 22, N-(4-methoxyphenyl)-2-thiophenecarboximidamide hydrochloride]
24 | < 3.5 | – | COc1cc(O)c(C(=O)N2CC(Oc3ccc(NC(=N)c4cccs4)cc3)C2)c(OC)c1 [Example 27, 1-(2-hydroxy-4,6-dimethoxybenzoyl)-3-{4-[(imino(2-thienyl)methyl)amino]phenoxy}azetidine hydrochloride]
25 | < 3.5 | – | COc1ccc(O)c(NC(=O)CCCc2ccc(NC(=N)c3cccs3)cc2)c1 [Example 28, N-(2-hydroxy-5-methoxy)-4-{[2-thienyl(imino)methyl]amino}benzene-butanamide hydrochloride]
26 | < 3.5 | – | COc1ccc(N)c(C(=O)NCCc2ccc(N=C(N)c3cccs3)cc2)c1 [Example 31, 2-amino-N-(4-{[amino(2-thienyl)methylidene]amino}phenethyl)-5-methoxybenzamide]
27 | < 3.5 | – | CC(=O)Nc1ccc(CNCCc2ccc(N=C(N)c3cccs3)cc2)cc1 [Example 58, N-(4-{[(4-{[amino(2-thienyl)methylidene]amino}phenethyl)-amino]methyl}phenyl)acetamide]
28 | < 3.5 | – | COc1cc(O)c(C=NCCc2ccc(N=C(N)c3cccs3)cc2)c(OC)c1 [Example 68, N′-[4-(2-{[(2-hydroxy-4,6-dimethoxyphenyl)methylidene]-amino}ethyl)phenyl]-2-thiophenecarboximidamide]

Reference: patent publication US7576241B2, “Derivatives of amidines, their preparation, their use as medicaments and the pharmaceutical compositions containing them” (Ipsen Pharma S.A.S., priority 1998, dated 2009)
